Source: publication PMC8241737
These are yes or no findings as the source states them, for the method shown. In cells and extracts the contact can be indirect. Some binding calls cover weakened binding; strength is not graded here.

By UniProt entry, the sequences of proteins in these tests, tags left out. Residues count along the entry.
UniProt Q01097, residues 27-1482: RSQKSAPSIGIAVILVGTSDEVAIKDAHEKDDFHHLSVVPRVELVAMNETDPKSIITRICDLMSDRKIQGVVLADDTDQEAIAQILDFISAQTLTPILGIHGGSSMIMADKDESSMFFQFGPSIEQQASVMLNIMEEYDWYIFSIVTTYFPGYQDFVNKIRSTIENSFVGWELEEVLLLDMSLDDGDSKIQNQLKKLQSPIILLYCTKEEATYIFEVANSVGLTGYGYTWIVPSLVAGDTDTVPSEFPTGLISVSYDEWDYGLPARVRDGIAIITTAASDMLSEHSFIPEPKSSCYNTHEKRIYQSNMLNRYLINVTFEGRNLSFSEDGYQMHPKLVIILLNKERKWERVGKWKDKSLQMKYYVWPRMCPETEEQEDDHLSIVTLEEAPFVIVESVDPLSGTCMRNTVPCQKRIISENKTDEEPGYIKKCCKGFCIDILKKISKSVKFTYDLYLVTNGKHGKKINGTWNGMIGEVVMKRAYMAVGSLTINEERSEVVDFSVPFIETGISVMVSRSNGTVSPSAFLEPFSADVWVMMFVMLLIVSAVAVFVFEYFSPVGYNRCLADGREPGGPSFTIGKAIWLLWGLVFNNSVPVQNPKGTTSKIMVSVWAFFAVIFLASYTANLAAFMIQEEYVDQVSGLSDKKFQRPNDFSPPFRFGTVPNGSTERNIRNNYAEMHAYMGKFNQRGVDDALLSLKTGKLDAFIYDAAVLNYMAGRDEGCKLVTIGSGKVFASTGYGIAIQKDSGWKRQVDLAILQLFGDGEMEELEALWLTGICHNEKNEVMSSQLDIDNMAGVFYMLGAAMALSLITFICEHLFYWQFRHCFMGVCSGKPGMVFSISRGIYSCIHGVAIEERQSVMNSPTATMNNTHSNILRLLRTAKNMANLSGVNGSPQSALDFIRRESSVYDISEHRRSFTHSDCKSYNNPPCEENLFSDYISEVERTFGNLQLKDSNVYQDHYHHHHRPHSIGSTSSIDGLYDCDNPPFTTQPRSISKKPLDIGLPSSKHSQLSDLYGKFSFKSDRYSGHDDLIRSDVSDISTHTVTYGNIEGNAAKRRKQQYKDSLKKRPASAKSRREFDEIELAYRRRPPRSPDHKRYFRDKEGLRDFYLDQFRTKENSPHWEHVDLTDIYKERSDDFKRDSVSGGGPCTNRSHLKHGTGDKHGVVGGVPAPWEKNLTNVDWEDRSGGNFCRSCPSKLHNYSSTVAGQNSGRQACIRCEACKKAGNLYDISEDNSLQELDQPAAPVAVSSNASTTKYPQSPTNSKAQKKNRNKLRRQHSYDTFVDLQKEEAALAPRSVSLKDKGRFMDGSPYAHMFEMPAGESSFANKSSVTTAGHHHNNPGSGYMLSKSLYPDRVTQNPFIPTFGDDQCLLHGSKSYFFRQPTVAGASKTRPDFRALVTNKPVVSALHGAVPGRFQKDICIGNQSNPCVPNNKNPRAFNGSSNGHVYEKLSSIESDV
UniProt Q80YE7: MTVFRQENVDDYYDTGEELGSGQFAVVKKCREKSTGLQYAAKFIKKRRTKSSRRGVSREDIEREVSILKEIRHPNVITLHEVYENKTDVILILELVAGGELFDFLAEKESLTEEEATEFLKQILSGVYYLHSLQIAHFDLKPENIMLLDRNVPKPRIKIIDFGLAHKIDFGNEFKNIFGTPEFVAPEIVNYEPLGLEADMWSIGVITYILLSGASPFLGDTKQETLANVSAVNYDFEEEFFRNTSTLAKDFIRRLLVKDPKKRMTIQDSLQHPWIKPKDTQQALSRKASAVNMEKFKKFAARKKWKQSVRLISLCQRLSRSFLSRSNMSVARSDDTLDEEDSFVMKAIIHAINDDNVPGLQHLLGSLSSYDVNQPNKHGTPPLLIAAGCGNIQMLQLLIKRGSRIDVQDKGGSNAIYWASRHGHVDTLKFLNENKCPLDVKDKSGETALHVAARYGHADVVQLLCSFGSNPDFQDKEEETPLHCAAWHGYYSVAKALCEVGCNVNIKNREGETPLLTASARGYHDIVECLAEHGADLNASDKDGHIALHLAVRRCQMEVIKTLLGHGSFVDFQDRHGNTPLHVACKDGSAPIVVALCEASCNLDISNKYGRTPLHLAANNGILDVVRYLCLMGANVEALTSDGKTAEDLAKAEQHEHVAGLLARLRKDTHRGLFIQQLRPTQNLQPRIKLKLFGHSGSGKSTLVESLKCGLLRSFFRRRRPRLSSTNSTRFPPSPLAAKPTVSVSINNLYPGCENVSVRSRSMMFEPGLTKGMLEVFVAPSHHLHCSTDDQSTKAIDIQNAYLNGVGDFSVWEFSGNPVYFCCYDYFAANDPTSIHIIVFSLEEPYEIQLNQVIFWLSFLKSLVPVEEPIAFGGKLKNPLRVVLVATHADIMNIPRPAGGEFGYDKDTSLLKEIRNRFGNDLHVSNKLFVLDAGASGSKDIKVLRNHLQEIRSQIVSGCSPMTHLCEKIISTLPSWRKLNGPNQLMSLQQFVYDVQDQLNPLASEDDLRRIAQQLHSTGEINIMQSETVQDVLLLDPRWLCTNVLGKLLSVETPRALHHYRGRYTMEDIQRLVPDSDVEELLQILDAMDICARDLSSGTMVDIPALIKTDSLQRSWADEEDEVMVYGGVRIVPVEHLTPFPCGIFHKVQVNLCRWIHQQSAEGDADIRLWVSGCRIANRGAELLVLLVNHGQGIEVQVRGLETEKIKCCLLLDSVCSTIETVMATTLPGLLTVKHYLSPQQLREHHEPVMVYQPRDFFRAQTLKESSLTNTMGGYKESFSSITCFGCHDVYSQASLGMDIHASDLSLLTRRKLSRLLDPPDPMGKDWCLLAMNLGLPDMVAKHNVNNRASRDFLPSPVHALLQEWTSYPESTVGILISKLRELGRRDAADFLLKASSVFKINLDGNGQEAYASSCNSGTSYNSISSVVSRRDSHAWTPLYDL

Molecular target: NR2B subunit of the N-methyl-D aspartate receptor (NMDAR) (mouse (endogenous in mouse brain)) (UniProt Q01097)
Assay: co-IP; mouse brain (hippocampus) lysates incubated with the corresponding antibodies 3 h at 4 °C, protein A/G-Sepharose 1 h, immunoblot; mice given saline, a single convulsive dose of PTZ (50 mg/kg, tissue 3 min after) or repeated subconvulsive PTZ (35 mg/kg, tissue after the fourth injection)

With “Death-associated protein kinase 1 (from UniProt Q80YE7 1-1442) (enzyme)” the binding was “binds”.
